Data as given in US20160000750A1, “COMBINATION OF EGCG OR METHYLATED EGCG AND A PDE INHIBITOR” (KYUSHU UNIVERSITY, NATIONAL UNIVERSITY CORPORATION, priority 2010, published 2016).
At least one structure is not confirmed: it was looked up by name or label, or the drawing left a doubt.

Assays:
[1] = tested on: human multiple myeloma cell line, U266; assay: Trypan blue cell viability and viable cell count, U266; format: cell-based; conditions: vardenafil 5 μM, EGCG 5 μM added after 3 hours, 96 hours
Method: A human multiple myeloma cell line, U266, was subcultured in an RPMI 1640 medium (NISSUI PHARMACEUTICAL Co. LTD., Tokyo) supplemented with 10% fetal calf serum (FCS) (BIOLOGICAL INDUSTRIES) at 37° C. under vapor-saturated 5% CO2 conditions. The cells were cultured in the logarithmic growth phase. A human acute myeloid leukemia cell line, HL60, was subcultured in an RPMI 1640 medium supplemented with 10% fetal calf serum (FCS) at 37° C. under vapor-saturated 5% CO2 conditions. The cells were cultured in the logarithmic growth phase. […]
(§1) The plate was returned to the incubator immediately after the addition of EGCG, followed by culturing for 96 hours. […] After 10 minutes, the number of the cells was counted with a hemocytometer (Becton, Dickinson and Company). Unstained cells were deemed as viable cells, and the cell viability was determined as a ratio of the number of unstained cells in trypan blue staining to the total number of cells. […]

[2] = tested on: human acute myeloid leukemia cell line, HL60; assay: Involvement of 67LR (anti-67LR antibody MLuc5) in cell-killing and cytostatic activity, HL60; format: cell-based; conditions: HL60, 96-well; vardenafil 5 μM, EGCG 5 μM; 96 hours; without anti-67LR antibody (isotype control mouse IgM)
Method: A trypan blue staining solution was prepared by suspending trypan blue in PBS at a concentration of 1% and was used in investigation of the anti-cancer activity of a combination of EGCG and vardenafil by trypan blue assay. The PBS used was prepared by dissolving 8.0 g of NaCl, 0.2 g of KCl, 1.15 g of Na2HPO4, and 0.2 g of KH2PO4 in 1 L of ultrapure water, followed by autoclave sterilization.
A human multiple myeloma cell line, U266, and a human acute myeloid leukemia cell line, HL60, adjusted to be 5×10^4 cells/mL (U266) and 1×10^4 cells/mL (HL60), respectively, in an RPMI 1640 medium supplemented with 1% FCS were seeded in a 96-well plate (Falcon Co., Ltd.). Vardenafil was added thereto at a final concentration of 5 μM. Immediately after the addition, an anti-67LR monoclonal antibody, MLuc5 (Abcam PLC), was added thereto at a final concentration of 20 μg/mL. In the group of adding an isotype control antibody, mouse IgM (Cosmo Bio Co., Ltd., Tokyo) was added at a final concentration of 20 μg/mL. […]
as §1, with “hemocytometer.” for “hemocytometer (Becton, Dickinson and Company).”

CCCc1nc(C)c2c(=O)[nH]c(-c3cc(S(=O)(=O)N4CCN(CC)CC4)ccc3OCC)nn12 [vardenafil]
cell viability (cell-killing activity) [1]: any cytotoxicity was not observed | cell viability (cell-killing activity) [2]: any cytotoxicity was not observed
